For 21 compounds, T/C and survivor count results are on record in PubChem BioAssay AID248 (DTP/NCI, 2004).

The list is a part of this screen's results and no random one: it gathers tests that were run many times, whatever their T/C, doses with no T/C, and many T/C values between a quarter and a half above the control. Further doses and runs are listed elsewhere. T/C gives the treated animals as a percentage of the vehicle group. Some entries give survivors of the animals treated and no T/C: the source files T/C as zero there, which appears to mark a toxic dose or a test without result, not a measured value. Some doses without a T/C left all or most animals alive at the check, yet need not have been tolerated: survival well below the control is almost never listed, so the zero probably covers shortened survival too. Counts of survivors are from the toxicity check (mostly the fifth day) where no day follows; animals may have died later. Schedule codes are those of the source, read here as Q, the interval in days (D) or hours (H), X, the number of doses. Some doses were run more than once; the values are given in rising order. For survival time, this PubChem deposit counts one and a half times the control or more as active, and values a quarter to a half above the control carry no call in these data; other NCI protocols may use other cut-offs. Signs of the kind (2×) count equal records among those shown. Some T/C values are followed by the survivors on the day toxicity was checked, most often the fifth; where none is given, no animal had died by that day.

This experiment relates to L1210 leukemia ip in BDF1 mice, survival T/C. As to the kind of experiment: NCI In Vivo Anticancer Drug Screen. Data for tumor model L1210 Leukemia (intraperitoneal) in B6D2F1 (BDF1) mice. The following applies: T/C endpoint: mean survival time, higher T/C = longer survival.
The mark [1] stands for this setting: dose: 100.0 mg/kg/injection, schedule: Q01DX009 (ip), vehicle: saline with Tween-80.
[2] abbreviates: dose: 200.0 mg/kg/injection, schedule: Q01DX009 (ip), vehicle: saline with Tween-80.
[3] abbreviates: dose: 400.0 mg/kg/injection, schedule: Q04DX002 (ip), vehicle: Klucel (hydroxypropylcellulose) (HPC).
The mark [4] stands for this setting: dose: 400.0 mg/kg/injection, schedule: Q01DX001 (ip), vehicle: saline.
Setting [5] is: dose: 100.0 mg/kg/injection, schedule: Q04DX003 (ip), vehicle: saline.
[6] abbreviates: dose: 200.0 mg/kg/injection, schedule: Q04DX003 (ip), vehicle: saline.
Where [7] appears, read: dose: 400.0 mg/kg/injection, schedule: Q01DX009 (ip), vehicle: Klucel (hydroxypropylcellulose) (HPC).
The mark [8] stands for this setting: dose: 25.0 mg/kg/injection, schedule: Q04DX003 (ip), vehicle: saline.
Setting [9] is: dose: 50.0 mg/kg/injection, schedule: Q04DX003 (ip), vehicle: saline.
[10] abbreviates: dose: 400.0 mg/kg/injection, schedule: Q04DX003 (ip), vehicle: Klucel (hydroxypropylcellulose) (HPC).

With `COc1cc(NS(C)(=O)=O)ccc1Nc1c2ccc(Cl)cc2nc2c(OC)cccc12`, the T/C is, setting by setting: (dose: 3.12 mg/kg/injection, schedule: Q01DX009 (ip), vehicle: water) 129 % of control; (dose: 66.0 mg/kg/injection, schedule: Q04DX003 (ip), vehicle: saline with Tween-80) 143 % of control. For the same compound, the survivor count reads like this: (dose: 25.0 mg/kg/injection, schedule: Q01DX009 (ip), vehicle: water) 2 of 6; (dose: 99.0 mg/kg/injection, schedule: Q04DX003 (ip), vehicle: saline with Tween-80) 6 of 6; under setting [1], 6 of 6; (dose: 150.0 mg/kg/injection, schedule: Q04DX003 (ip), vehicle: saline with Tween-80) 6 of 6; under setting [2], 5 of 6; (dose: 400.0 mg/kg/injection, schedule: Q01DX009 (ip), vehicle: saline with Tween-80) 3 of 6.

On to `CCCCCCC(=O)N1CCCC(C)C1` (stereo not given), for which the survivor count under setting [3] is recorded as 1 of 3.

For `CCCCCCCC(CC(=O)O)OC(=O)CC(CCCCCCC)OC1OC(C)C(O)C(O)C1OC1OC(C)C(O)C(O)C1O` (stereo not given), the survivor count under setting [3] is 0 of 3.

For the compound `CCOP(=S)(NN=C1CCC(C(C)(C)C)CC1)OCC` (stereo not given), the survivor count under setting [4] is recorded as 1 of 4.

For `CC(C)(C)C1CCC2(CC1)CO2` (stereo not given), the survivor count (dose: 200.0 mg/kg/injection, schedule: Q01DX001 (ip), vehicle: saline) was 3 of 6 and the survivor count under setting [4] was 1 of 6.

Regarding `Nc1ccc(N=Nc2ccccc2)cc1`, under “dose: 100.0 mg/kg/injection, schedule: Q04DX002 (ip), vehicle: Klucel (hydroxypropylcellulose) (HPC)”, the survivor count was 1 of 3.

As to `CS(=O)(=O)ON1C(=O)c2ccccc2C1=O`, the survivor count is, setting by setting: (dose: 50.0 mg/kg/injection, schedule: Q01DX009 (ip), vehicle: saline with Tween-80) 2 of 6; under setting [1], 0 of 6; under setting [5], 2 of 6; under setting [6], 0 of 6.

Take `O=C(Nc1ccc(F)cc1)c1cccc(C(=O)Nc2ccc(F)cc2)c1`: the survivor count was 6 of 6 (dose: 200.0 mg/kg/injection, schedule: Q04DX003 (ip), vehicle: saline with Tween-80) and 6 of 6 (dose: 400.0 mg/kg/injection, schedule: Q04DX003 (ip), vehicle: saline with Tween-80).

On to `O=C1Cc2ccccc2O1`, for which, under setting [2], the T/C was 135 % of control.

With `CCCCCCCCCCCCO`, the survivor count under setting [7] is given as 6 of 6.

On to `CNC(=O)CCN1CCN(CC/C=C2\c3ccccc3Sc3ccc(Cl)cc32)CC1`, for which the survivor count by setting is: (dose: 6.25 mg/kg/injection, schedule: Q03HX024 (ip), vehicle: saline) 3 of 6; (dose: 12.5 mg/kg/injection, schedule: Q03HX024 (ip), vehicle: saline) 0 of 6; (dose: 25.0 mg/kg/injection, schedule: Q03HX024 (ip), vehicle: saline) 0 of 6; (dose: 33.0 mg/kg/injection, schedule: Q01DX009 (ip), vehicle: saline) 2 of 6; under setting [9], 3 of 6; (dose: 66.0 mg/kg/injection, schedule: Q01DX009 (ip), vehicle: saline) 0 of 6. Besides, the survivor count is 1 of 6 under setting [5]; 0 of 4 under setting [6]; 0 of 6 (dose: 300.0 mg/kg/injection, schedule: Q01DX001 (ip), vehicle: saline); 0 of 4 (dose: 400.0 mg/kg/injection, schedule: Q04DX003 (ip), vehicle: saline). For the same compound, the T/C runs as follows: (dose: 6.25 mg/kg/injection, schedule: Q04DX003 (ip), vehicle: saline) 130 % of control; (dose: 12.5 mg/kg/injection, schedule: Q04DX003 (ip), vehicle: saline) 127 % of control; under setting [8], 136 % of control; under setting [9], 133 % of control.

Take `O=C(NO)c1cnccn1`: under “dose: 444.0 mg/kg/injection, schedule: Q01DX015 (ip), vehicle: water”, the T/C was 128 % of control.

Regarding `CN(C)/N=N/c1ncn[nH]1`, the T/C (dose: 12.0 mg/kg/injection, schedule: Q01DX009 (ip), vehicle: saline) was 147 % of control; the T/C under setting [8] was 127 % of control; the T/C (dose: 33.0 mg/kg/injection, schedule: Q04DX003 (ip), vehicle: saline) is 133 % of control; the T/C under setting [9] was 145 % of control (2×); the T/C (dose: 75.0 mg/kg/injection, schedule: Q04DX003 (ip), vehicle: saline) was 131 % of control; the T/C (dose: 100.0 mg/kg/injection, schedule: Q01DX001 (ip), vehicle: saline) was 145 % of control.

In the case of `CCOC(=O)c1cnc(C)nc1Nc1ccccc1F`, the survivor count under setting [10] is given as 0 of 6.

Consider `CCCCCC[P+](=O)CCCCCC`, for which the survivor count (dose: 400.0 mg/kg/injection, schedule: Q04DX002 (ip), vehicle: gum acacia) is listed as 0 of 3.

For `CCCCCCC(=O)N(CCCCC)CCCCC`, the survivor count (dose: 400.0 mg/kg/injection, schedule: Q01DX009 (ip), vehicle: carboxymethylcellulose (CMC)) is 3 of 3 and 6 of 6.

Regarding `CC1=C2[C@H]3OC(=O)[C@@H](C)[C@@H]3CC[C@@]2(C)C=C/C1=N\O`, the survivor count under setting [4] is reported as 0 of 6.

As for `C=COCCCCCCCCCCCC(CCCCCC)OC=C` (stereo not given), the survivor count under setting [3] was 3 of 3.

Take `N/C=N/O`: the T/C is 126 % of control (dose: 100.0 mg/kg/injection, schedule: Q01DX009 (ip), vehicle: saline); 132 % of control [5 of 6 alive] (dose: 200.0 mg/kg/injection, schedule: Q01DX009 (ip), vehicle: saline); 133 % of control (dose: 400.0 mg/kg/injection, schedule: Q01DX009 (ip), vehicle: saline).

`Clc1ccc(Cl)c(NNc2cc(Cl)ccc2Cl)c1`: the survivor count (dose: 200.0 mg/kg/injection, schedule: Q01DX009 (ip), vehicle: Klucel (hydroxypropylcellulose) (HPC)) was 6 of 6; the survivor count under setting [7] is 0 of 6; the survivor count under setting [10] is listed as 4 of 6.

Take `CCOC(=O)c1ccc(NC(=O)Nc2cccc(C(F)(F)F)c2)cc1`: the survivor count under setting [7] is on record as 6 of 6.
